Results as given in PMC7971865.
Results are given in words; binding and its absence hold for the method and conditions named. Binding seen in cells or lysates may run through a third protein. Some results given as binding are weak or reduced against the parent protein; the word gives no strength.

Target: T1, caveolin-1 (mouse (endogenous in splenic CD4+ T cells)), P49817
T1 chain: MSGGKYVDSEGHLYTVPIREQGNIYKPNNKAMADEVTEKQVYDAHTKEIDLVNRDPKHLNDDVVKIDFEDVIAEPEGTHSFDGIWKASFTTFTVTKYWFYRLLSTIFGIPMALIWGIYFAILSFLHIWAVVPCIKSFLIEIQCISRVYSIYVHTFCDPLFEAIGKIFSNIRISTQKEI
Assay: proximity ligation; Duolink In Situ Red kit, mouse CSK and rabbit Cav-1 primary antibodies; fixed, permeabilised CD4+ T cells from Spry2+/+ and Spry2-/- mice, unstimulated or anti-CD3/CD28-stimulated (10 min)
Settings: remark: other sources report otherwise

binding: binds
B1: CSK, P41241 1-450 (enzyme)
chain: MSAIQAAWPSGTECIAKYNFHGTAEQDLPFCKGDVLTIVAVTKDPNWYKAKNKVGREGIIPANYVQKREGVKAGTKLSLMPWFHGKITREQAERLLYPPETGLFLVRESTNYPGDYTLCVSCEGKVEHYRIMYHASKLSIDEEVYFENLMQLVEHYTTDADGLCTRLIKPKVMEGTVAAQDEFYRSGWALNMKELKLLQTIGKGEFGDVMLGDYRGNKVAVKCIKNDATAQAFLAEASVMTQLRHSNLVQLLGVIVEEKGGLYIVTEYMAKGSLVDYLRSRGRSVLGGDCLLKFSLDVCEAMEYLEGNNFVHRDLAARNVLVSEDNVAKVSDFGLTKEASSTQDTGKLPVKWTAPEALREKKFSTKSDVWSFGILLWEIYSFGRVPYPRIPLKDVVPRVEKGYKMDAPDGCPPAVYEVMKNCWHLDAATRPTFLQLREQLEHIKTHELHL
